Hit rate of the full screen: of about 400,000 compounds, about 13,000 (3.2%) were called active. Inconclusive results, whose numbers are uncertain, are shown with a selection of clear calls. Calls come from the whole dose curve; as a rule, active = well fitted cell-killing curve with a large enough effect; inconclusive = small, poorly fitted or top-dose-only effect, or effect the other way; inactive = flat fitted curve, though single readings scatter. Potencies of inconclusive entries are doubtful fits and often do not repeat.
Experiment: qHTS assay for MDR1-selective chemotherapeutics: Primary screen using the drug-selected MDR subline cells KB-V1; note: nearly all actives have a fitted effect of over 60% in size
Settings: KB-V1 MDR cells viability, CellTiter-Glo, 72 h; series mostly up to 46.1 µM
Summary of the method: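 Potencies derive from concentration-effect curves fitted to normalized luminescence (CellTiter-Glo) of KB-V1 cells treated for 72 h at 37 degrees C in phenol-red-free DMEM containing 10% FBS.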
Potency is the fitted concentration of half-maximal effect.

Row | SMILES | Potency
1 | CC1CN(S(=O)(=O)c2cc(C(=O)NC(C)c3cccnc3)ccc2Cl)CC(C)O1 (stereo not given) | inactive
2 | CC1(Cc2cc(Cl)ccc2C(F)(F)F)C(=O)Nc2ccc(OC(F)(F)F)cc21 (stereo not given) | inconclusive: 29.1 µM [cytotoxic, single point]
3 | COc1cccc(NC(=O)c2ccccc2)c1 | inactive
4 | COc1ccccc1N1CCN(C(=O)C2CCN(S(=O)(=O)c3ccc(C)cc3)CC2)CC1 | inconclusive: 4.11 µM [cytotoxic, partial curve]
5 | CCOC(=O)c1sc2nc(SC)nc(-c3ccc(Cl)cc3)c2c1N | inactive
6 | COc1ccc(-n2ncc3c(N4CCCc5ccccc54)ncnc32)cc1 | inconclusive: 18.4 µM [cytotoxic, single point]
7 | OC1CCCN(CC(O)COc2ccc(-c3ccccc3)cc2)C1 (stereo not given) | inconclusive: 29.1 µM [rising, single point]
8 | O=C(NC1CCCCC1)C(Cc1ccccc1)NS(=O)(=O)c1cccs1 (stereo not given) | inconclusive: 11.6 µM [cytotoxic, partial curve, poor fit]
9 | Cc1c(NC(=S)N/N=C/c2cccc(O)c2)c(=O)n(-c2ccccc2)n1C | inactive
10 | Nc1c(Cl)cc(/C=C2\C=Cc3ccccc32)cc1Cl | inactive
11 | O=C(O)C1CCCN1S(=O)(=O)c1ccc(F)cc1 (stereo not given) | inactive
12 | CC(=O)OCC(=O)C1(O)CCC2C3CC(C)C4=CC(=O)C=CC4(C)C3=CCC21C (stereo not given) | inactive
13 | CCOC(=O)c1c(S(=O)(=O)N2CCN(c3ccccc3OC)CC2)c(C)n(C)c1C | inactive
14 | COc1cccc(C(=O)Nc2ccccc2-c2nc(-c3ccc(C)cc3)no2)c1 | inactive
15 | CC1CCc2c(sc(NC(=O)c3ccco3)c2C(=O)O)C1 (stereo not given) | inconclusive: 11.6 µM [cytotoxic, partial curve, poor fit]
16 | O=C1NC2CCCCC2C(=O)N1OS(=O)(=O)c1ccccc1 (stereo not given) | inactive
17 | COc1ccc(N(CC(=O)Nc2ccc(S(=O)(=O)N3CCOCC3)cc2)S(=O)(=O)c2ccc(F)cc2)cc1 | inconclusive: 16.4 µM [cytotoxic, single point]
18 | O=c1c2cc3c(cc2n(Cc2cccc(F)c2)c(=O)n1Cc1nc(-c2ccccc2)no1)OCO3 | inactive
19 | CCCCN(CCCC)c1ccc(/C=C/c2ccnc3ccccc23)cc1 | inconclusive: 20.6 µM [cytotoxic, single point]
20 | COc1ccc(NC(=O)c2c(Cl)n(C)c3ccccc23)cc1 | active: 5.8 µM
21 | Cc1cccc(C)c1-n1nnnc1C1c2ccccc2C(=O)N1CCCN1CCOCC1 (stereo not given) | inconclusive: 16.4 µM [cytotoxic, partial curve]
22 | Cc1cccc(N2CCN(C(=O)c3ccc4nc[nH]c4c3)CC2)c1C | inactive
23 | Cc1cccc(-n2c(SCC(=O)N(C)C3CCS(=O)(=O)C3)nc3ccccc3c2=O)c1C (stereo not given) | inactive
24 | COc1ccc(-c2cc(C(=O)N(C)Cc3ccccc3)c3ccccc3n2)cc1 | inconclusive: 6.51 µM [cytotoxic, partial curve]

Row | SMILES | Potency
25 | CN1CCC=C(C(=O)N2c3ccccc3Sc3ccc(Cl)cc32)C1 | inactive
26 | O=C(COc1ccc(Br)cc1Cl)NNC(=O)c1ccccc1 | inactive
27 | CCOc1ccc(NS(=O)(=O)c2ccc(C(=O)N3CCN(C(C)=O)CC3)cc2)cc1 | inconclusive: 29.1 µM [cytotoxic, single point]
28 | COc1ccc2c(CC(=O)N(C)CC3COc4ccccc4O3)coc2c1 (stereo not given) | active: 18.4 µM
29 | CN(C)S(=O)(=O)N1CCC(CO)(Cc2cccc(C(F)(F)F)c2)CC1 | inconclusive: 16.4 µM [cytotoxic, single point]
30 | CC(C)(C)C1CCN2CCCC(c3ccc([N+](=O)[O-])cc3)(C1)C21OCCO1 (stereo not given) | inconclusive: 20.6 µM [cytotoxic, partial curve]
31 | COc1ccc(NC(=O)CN2C(=O)c3cccc4cccc2c34)cc1OC | inactive
32 | Cc1cccc(C)c1N(CC(=O)NC1CCCCC1)C(=O)c1csnn1 | inconclusive: 18.4 µM [cytotoxic, partial curve, poor fit]
33 | COc1cccc(OCc2cc(C(=O)NC(C)c3cnn(C)c3C)no2)c1 (stereo not given) | inconclusive: 29.1 µM [cytotoxic, single point]
34 | CC1CCCC12NC(=O)NC2=O (stereo not given) | inactive
35 | O=C(Nc1ccnn1C1CCN(C(=O)c2cccc(Cl)c2)CC1)C1CC1 | inconclusive: 20.6 µM [rising, single point]
36 | CCCCOC(=O)Nc1ccccc1C(=O)N1CCCC1 | active: 13 µM
37 | Cc1cccc2cc(CN(CCCN(C)C)C(=S)NCCc3ccccc3)c(=O)[nH]c12 | inconclusive: 23.1 µM [cytotoxic, single point]
38 | Cn1c(=NC(=O)c2ccc(F)cc2)sc2cc(Br)ccc21 | inconclusive: 29.1 µM [rising, single point]
39 | COc1ccc(C(=O)COC(=O)c2cnc(C)cn2)c(OC)c1 | inconclusive: 13 µM [rising, partial curve, poor fit]
40 | CC(C)Sc1nc2ccc(N3C(=O)C4CCCCC4C3=O)cc2s1 (stereo not given) | inactive
41 | CCOC(=O)c1sc2c(c1C)c(=O)c(C(=O)OCC)cn2CC | inconclusive: 35.5 µM [cytotoxic, single point]
42 | Cc1cc2n(n1)CCCN2C(=O)Nc1ccccc1F | inconclusive: 20.6 µM [rising, single point]
43 | CCn1c(C)[n+](CC)c2ccc(S(=O)(=O)NC)cc21 | inconclusive: 18.4 µM [rising, single point]
44 | Cc1cc(C)c(-n2c(SCCS(=O)(=O)c3ccc(F)cc3)n[nH]c2=O)c(C)c1 | inactive
45 | CC1(C)CC(=O)C2=C(C1)N(Cc1ccco1)C(=O)C2(NC(=O)C1CCCCC1)C(F)(F)F (stereo not given) | inconclusive: 18.4 µM [cytotoxic, partial curve]
46 | CCCCCCN1C[C@H](O)[C@@H](n2cc(-c3ccc(F)cc3)nn2)C[C@@H]1c1ccccc1 | inconclusive: 23.1 µM [cytotoxic, single point]
47 | S=C1SCN(CCN2CCOCC2)CN1Cc1ccccc1 | inconclusive: 29.1 µM [cytotoxic, single point]
48 | CC1(C)CC(=O)c2c(O)cc(OCc3ccc([N+](=O)[O-])cc3)cc2O1 | inconclusive: 4.11 µM [cytotoxic, full curve]

Row | SMILES | Potency
49 | Cc1ccc(NC(=O)c2cccc(OCc3c(C)noc3C)c2)cc1S(=O)(=O)Nc1ccccc1Cl | active: 7.31 µM
50 | S=C(NCc1ccncc1)Nc1cccc(Cl)c1 | inconclusive: 20.6 µM [cytotoxic, single point]
51 | O=C(CSc1ccccc1F)NCC(c1ccco1)N1CCCCC1 (stereo not given) | inconclusive: 16.4 µM [cytotoxic, partial curve, poor fit]
52 | CCc1ccc(C(C(=O)NCc2ccc(OC)cc2)N(CCOC)C(=O)Cc2cccs2)cc1 (stereo not given) | inconclusive: 20.6 µM [cytotoxic, partial curve, poor fit]
53 | O=C(O)CCC(=O)N1N=C(c2c(-c3ccccc3)c3cc(Cl)ccc3[nH]c2=O)CC1c1cccs1 (stereo not given) | inconclusive: 29.1 µM [rising, single point]
54 | O=C(Nc1ccc2nn(-c3ccc(F)cc3)nc2c1)c1cccc2c(Cl)cccc12 | inactive
55 | CC(C)c1ccc(NC(=O)CNC(=O)Cn2cnc3ccccc3c2=O)cc1 | inconclusive: 23.1 µM [rising, single point]
56 | COc1cc(NC(=O)CN2CCN(c3ccccc3)CC2)c(C)cc1[N+](=O)[O-] | inconclusive: 16.4 µM [rising, partial curve, poor fit]
57 | CCN(CC)C(=O)[C@H]1CC(CC(=O)NCc2ccco2)C(=O)N2CCc3c([nH]c4ccc(OC)cc34)[C@]12C (stereo not given in full) | inactive
58 | COc1ccc(C2(c3ccc(OC)cc3)NC(=O)N(CC(=O)N3CCOCC3)C2=O)cc1 | inconclusive: 29.1 µM [rising, single point]
59 | Cc1ccc(C)c(Cn2c(=O)n(CCCC(=O)NCc3ccco3)c(=O)c3sccc32)c1 | inconclusive: 5.17 µM [cytotoxic, full curve]
60 | COc1ccc(CS(=O)(=O)CC2(O)CCN(C(=O)c3cccc(C(F)(F)F)c3)CC2)cc1 | inactive
61 | Cc1ccc(S(=O)(=O)N2CCC(=O)N(C(COCc3ccc(C(F)(F)F)cc3)C(C)C)CC2)cc1 (stereo not given) | inconclusive: 29.1 µM [cytotoxic, single point]
62 | CCn1c(=O)n(CC)c2cc(N3CCCC3)c(NC(=O)c3c(F)cccc3F)cc21 | inconclusive: 0.206 µM [cytotoxic, partial curve, poor fit]
63 | Cc1ccc(Nc2ncnc3sc(C)c(C)c23)cc1 | inconclusive: 29.1 µM [cytotoxic, single point]
64 | COc1cccc(CN2CCN(CCCc3ccccc3)C(CCO)C2)c1O (stereo not given) | inconclusive: 18.4 µM [cytotoxic, single point]
65 | O=C(Nc1nccs1)c1ccc(COc2ccccc2Br)o1 | active: 14.6 µM
66 | Fc1ccc(COc2ccc(Cl)cc2/C=N/Nc2nc(N3CCCC3)nc(N3CCCC3)n2)cc1 | inconclusive: 6.51 µM [cytotoxic, full curve]
67 | O=C(O)C1=C/C(=C/C=[N+]2c3cc(O)c(O[C@H]4OC(CO)[C@@H](O)[C@@H](O)[C@@H]4O)cc3C[C@@H]2C(=O)[O-])C[C@H](C(=O)O)N1 (stereo not given in full) | inactive
68 | Cc1cc(N2CCOCC2)nc(-c2ccc(Br)cc2)n1 | inconclusive: 7.31 µM [cytotoxic, partial curve]
69 | COc1cccc(C2CC(=O)Nc3cc4c(cc32)CCC4)c1 (stereo not given) | active: 5.8 µM
70 | O=C(c1ccc2c(c1)OCCO2)C1CCN(S(=O)(=O)c2ccc(F)cc2)CC1 | inconclusive: 18.4 µM [cytotoxic, single point]

An excerpt of these results, in markdown:

| Row | SMILES | Potency |
| --- | --- | --- |
| 51 | O=C(CSc1ccccc1F)NCC(c1ccco1)N1CCCCC1 (stereo not given) | inconclusive: 16.4 µM [cytotoxic, partial curve, poor fit] |
| 52 | CCc1ccc(C(C(=O)NCc2ccc(OC)cc2)N(CCOC)C(=O)Cc2cccs2)cc1 (stereo not given) | inconclusive: 20.6 µM [cytotoxic, partial curve, poor fit] |
| 53 | O=C(O)CCC(=O)N1N=C(c2c(-c3ccccc3)c3cc(Cl)ccc3[nH]c2=O)CC1c1cccs1 (stereo not given) | inconclusive: 29.1 µM [rising, single point] |
| 54 | O=C(Nc1ccc2nn(-c3ccc(F)cc3)nc2c1)c1cccc2c(Cl)cccc12 | inactive |
| 55 | CC(C)c1ccc(NC(=O)CNC(=O)Cn2cnc3ccccc3c2=O)cc1 | inconclusive: 23.1 µM [rising, single point] |
| 56 | COc1cc(NC(=O)CN2CCN(c3ccccc3)CC2)c(C)cc1[N+](=O)[O-] | inconclusive: 16.4 µM [rising, partial curve, poor fit] |
| 57 | CCN(CC)C(=O)[C@H]1CC(CC(=O)NCc2ccco2)C(=O)N2CCc3c([nH]c4ccc(OC)cc34)[C@]12C (stereo not given in full) | inactive |
| 58 | COc1ccc(C2(c3ccc(OC)cc3)NC(=O)N(CC(=O)N3CCOCC3)C2=O)cc1 | inconclusive: 29.1 µM [rising, single point] |
| 59 | Cc1ccc(C)c(Cn2c(=O)n(CCCC(=O)NCc3ccco3)c(=O)c3sccc32)c1 | inconclusive: 5.17 µM [cytotoxic, full curve] |
| 60 | COc1ccc(CS(=O)(=O)CC2(O)CCN(C(=O)c3cccc(C(F)(F)F)c3)CC2)cc1 | inactive |
| 61 | Cc1ccc(S(=O)(=O)N2CCC(=O)N(C(COCc3ccc(C(F)(F)F)cc3)C(C)C)CC2)cc1 (stereo not given) | inconclusive: 29.1 µM [cytotoxic, single point] |
| 62 | CCn1c(=O)n(CC)c2cc(N3CCCC3)c(NC(=O)c3c(F)cccc3F)cc21 | inconclusive: 0.206 µM [cytotoxic, partial curve, poor fit] |
| 63 | Cc1ccc(Nc2ncnc3sc(C)c(C)c23)cc1 | inconclusive: 29.1 µM [cytotoxic, single point] |
| 64 | COc1cccc(CN2CCN(CCCc3ccccc3)C(CCO)C2)c1O (stereo not given) | inconclusive: 18.4 µM [cytotoxic, single point] |
| 65 | O=C(Nc1nccs1)c1ccc(COc2ccccc2Br)o1 | active: 14.6 µM |
| 66 | Fc1ccc(COc2ccc(Cl)cc2/C=N/Nc2nc(N3CCCC3)nc(N3CCCC3)n2)cc1 | inconclusive: 6.51 µM [cytotoxic, full curve] |

Reference: PubChem BioAssay AID1347076 (National Center for Advancing Translational Sciences (NCATS), 2019)
